PubChem BioAssay AID1224826, NIAID, 2016
The whole screen tested about 17,000 reagents; shown is a part drawn at random. About 1,110 of all reagents (6.6%) were called active. 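Active means lowered or raised reporter signal; replicate intensities are raw and not normalised per plate.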 A number with no mark means an inactive call. A reagent listed more than once was tested more than once; the source does not tell the runs apart.

- Aim: 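Genes that change LPS-induced Tnf promoter activity in mouse macrophages when knocked down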 (primary screen)
- Cells: RAW264.7 G9 macrophages from mouse bearing reporters for p65 (GFP) and the Tnf promoter (mCherry)
- Knock-down reagent: siRNA pool against mouse genes, 100 nM
- Time to read-out: 16 h of LPS stimulation, after 2 days of siRNA transfection
- Challenge: bacterial lipopolysaccharide (Salmonella minnesota R595), 10 ng/ml
- Measured: 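Imaged Tnf reporter mCherry in nuclei, minus background, normalised per plate to the median and expressed as robust z-scores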
- Reading the numbers: Tnf reporter robust z-score: higher = stronger Tnf promoter reporter signal after LPS; Tnf reporter intensity: higher = stronger Tnf promoter reporter signal
- Call rule: 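Called active when robust z-score is at most -1.3, matching the median of the Tlr4 knock-down control, or over 3; control wells and wells with under 50 cells never active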
- Meaning of the calls: active = Tnf reporter clearly lowered or raised; inactive = no clear change in Tnf reporter

Target gene	Tnf reporter robust z-score	fewer than 50 cells in well	Tnf reporter intensity, replicate 1	Tnf reporter intensity, replicate 2
Ids (iduronate 2-sulfatase)	0.09	enough cells in well	227	211
Cysrt1 (cysteine rich tail 1)		fewer than 50 cells per well; well left out of calls	271	72.8
Frzb (frizzled-related protein)	1.13	enough cells in well	326	351
Il23r (interleukin 23 receptor)	0.52	enough cells in well	265	188
Atp5f1c (ATP synthase F1 subunit gamma)	0.2	enough cells in well	146	141
Gpi1 (glucose-6-phosphate isomerase 1)	-0.44	enough cells in well	156	202
Map2k7 (mitogen-activated protein kinase kinase 7)		fewer than 50 cells per well; well left out of calls	75.8	72.7
Anp32e (acidic nuclear phosphoprotein 32 family member E)	-0.28	enough cells in well	185	171
Sfrp2 (secreted frizzled-related protein 2)	0.25	enough cells in well	282	252
Tmprss11f (transmembrane protease, serine 11f)	-0.16	enough cells in well	164	52.9
Rbp7 (retinol binding protein 7, cellular)	-0.23	enough cells in well	130	106
Chrna1 (cholinergic receptor nicotinic alpha 1 subunit)	-0.31	enough cells in well	256	153
Cdh3 (cadherin 3)	-0.29	enough cells in well	241	169
Prpf8 (pre-mRNA processing factor 8)	-0.1	enough cells in well	258	168
Ing1 (inhibitor of growth family, member 1)	-0.23	enough cells in well	215	143
Or10d3 (olfactory receptor family 10 subfamily D member 3)	1.56	enough cells in well	212	215
Ccdc120 (coiled-coil domain containing 120)	0.56	enough cells in well	195	155
Pgghg (protein glucosylgalactosylhydroxylysine glucosidase)	-0.47	enough cells in well	117	143
Nkiras1 (NFKB inhibitor interacting Ras-like protein 1)	0.72	enough cells in well	302	224
Slc35b4	0.07	enough cells in well	157	177
Epop	-0.92	enough cells in well	130	78.4
Cirsr (corepressor of RBPJ and splicing regulator)	2.39	enough cells in well	380	148
Emp3 (epithelial membrane protein 3)	0.41	enough cells in well	271	162
Tollip (toll interacting protein)	-0.1	enough cells in well	224	101
Ric8b (RIC8 guanine nucleotide exchange factor B)	0.05	enough cells in well	272	82.4
Gsdma (gasdermin A)	0.53	enough cells in well	302	185
Adcy7 (adenylate cyclase 7)	0.57	enough cells in well	238	231
Fzd4 (frizzled class receptor 4)	0.15	enough cells in well	226	309
Nlrp12 (NLR family, pyrin domain containing 12)	0.61	enough cells in well	293	268
Atp10a (ATPase, class V, type 10A)	-0.42	enough cells in well	162	126
Ubox5 (U box domain containing 5)	-0.62	enough cells in well	99	150
Mnx1 (motor neuron and pancreas homeobox 1)	0.47	enough cells in well	231	258
Ifne (interferon epsilon)	4.29 (active)	enough cells in well	477	288
Dmp1 (dentin matrix protein 1)	-0.68	enough cells in well	147	68.3

Records above whose gene name starts with I or i (4):
Target gene	Tnf reporter robust z-score	fewer than 50 cells in well	Tnf reporter intensity, replicate 1	Tnf reporter intensity, replicate 2
Ids (iduronate 2-sulfatase)	0.09	enough cells in well	227	211
Il23r (interleukin 23 receptor)	0.52	enough cells in well	265	188
Ing1 (inhibitor of growth family, member 1)	-0.23	enough cells in well	215	143
Ifne (interferon epsilon)	4.29 (active)	enough cells in well	477	288

Additional entries follow:
Target gene	Tnf reporter robust z-score	fewer than 50 cells in well	Tnf reporter intensity, replicate 1	Tnf reporter intensity, replicate 2
Wdr54 (WD repeat domain 54)	0.03	enough cells in well	216	126
Or13a1 (olfactory receptor family 13 subfamily A member 1)	-0.4	enough cells in well	160	100
Slc35a2		fewer than 50 cells per well; well left out of calls	36.3	50.1
Dhx37 (DEAH-box helicase 37)	-0.61	enough cells in well	188	97.2
Or5p64 (olfactory receptor family 5 subfamily P member 64)		fewer than 50 cells per well; well left out of calls	36.3	69.9
Tpr (translocated promoter region, nuclear basket protein)	-1.71 (active)	enough cells in well	101	92.1
Chchd2l2		fewer than 50 cells per well; well left out of calls	257	95.1
Dnaaf2 (dynein, axonemal assembly factor 2)	0.63	enough cells in well	330	90.4
Rps11 (ribosomal protein S11)		fewer than 50 cells per well; well left out of calls	43.8	50.2
Creld1 (cysteine-rich with EGF-like domains 1)	0.33	enough cells in well	215	186
Defb10 (defensin beta 10)	-0.43	enough cells in well	162	139
Or14j6 (olfactory receptor family 14 subfamily J member 6)	5.18 (active)	enough cells in well	539	301
Prol1 (proline rich, lacrimal 1)	0.07	enough cells in well	219	116
C1qtnf4 (C1q and tumor necrosis factor related protein 4)	-0.76	enough cells in well	88.2	113
Csn1s1 (casein alpha s1)	2.38	enough cells in well	188	326
Sars1 (seryl-tRNA synthetase 1)	-0.56	enough cells in well	100	107
Edaradd (EDAR associated via death domain)	0.03	enough cells in well	254	207
Acot10 (acyl-CoA thioesterase 10)	1.8	enough cells in well	340	293
Hcn3 (hyperpolarization-activated, cyclic nucleotide-gated K+ 3)	0.25	enough cells in well	257	205
4930539J05Rik (RIKEN cDNA 4930539J05 gene)	0.2	enough cells in well	201	193
A430085C19 (retired record)		fewer than 50 cells per well; well left out of calls	122	131
Nr1h5 (nuclear receptor subfamily 1, group H, member 5)	0.67	enough cells in well	228	186
Ngfr (nerve growth factor receptor (TNFR superfamily, member 16))	-0.18	enough cells in well	211	184
Rwdd1 (RWD domain containing 1)		fewer than 50 cells per well; well left out of calls	82.8	54.8
Zfp109 (zinc finger protein 109)	0.33	enough cells in well	150	125
Lypd8l (LY6/PLAUR domain containing 8 like)		fewer than 50 cells per well; well left out of calls	229	155
Ipo11 (importin 11)	-0.47	enough cells in well	177	100
Speg (SPEG complex locus)	0.06	enough cells in well	185	157
Pak5 (p21 (RAC1) activated kinase 5)		fewer than 50 cells per well; well left out of calls	147	122
Map2k2 (mitogen-activated protein kinase kinase 2)	-1	enough cells in well	130	125
Slco1b2		fewer than 50 cells per well; well left out of calls	0	0
Ptger4 (prostaglandin E receptor 4 (subtype EP4))	-0.57	enough cells in well	248	41.1
Npr1 (natriuretic peptide receptor 1)	2.19	enough cells in well	350	272
Npr1 (natriuretic peptide receptor 1)	3.57 (active)	enough cells in well	400	251
Or12k8 (olfactory receptor family 12 subfamily K member 8)	-1.13	enough cells in well	117	58.6
Pcdhb3 (protocadherin beta 3)	-0.62	enough cells in well	190	144
Rpl39 (ribosomal protein L39)	-1.46 (active)	enough cells in well	68.7	61.1
Aktip (AKT interacting protein)	0.05	enough cells in well	255	245
Ssr4 (signal sequence receptor, delta)	-1.01	enough cells in well	214	116
Itih4 (inter alpha-trypsin inhibitor, heavy chain 4)	0.84	enough cells in well	246	169
Ramp2 (receptor (calcitonin) activity modifying protein 2)	0.4	enough cells in well	371	218
